For the assay, the target named is KIAA0101 harboring a mutant KEN box (HA-mt-KIAA0101) (human) (UniProt Q15004). Briefly: co-IP; lysates of SK-MES-1 cells transfected 48 h with HA-KIAA0101 (wt or mutant KEN box); precleared, precipitated with anti-HA antibody (2 ug/ml) and protein A or G agarose/Sepharose beads, 2 h at room temperature or overnight at 4 °C; washed with PBS; western blotting.

Amino acid sequences for entries named in this document (tags omitted). A change or cut given only in a name is not applied to a line headed by its entry.
UniProt Q15004: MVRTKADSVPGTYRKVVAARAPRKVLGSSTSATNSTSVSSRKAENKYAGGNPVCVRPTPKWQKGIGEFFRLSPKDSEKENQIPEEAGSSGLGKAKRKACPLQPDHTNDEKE
UniProt O00762: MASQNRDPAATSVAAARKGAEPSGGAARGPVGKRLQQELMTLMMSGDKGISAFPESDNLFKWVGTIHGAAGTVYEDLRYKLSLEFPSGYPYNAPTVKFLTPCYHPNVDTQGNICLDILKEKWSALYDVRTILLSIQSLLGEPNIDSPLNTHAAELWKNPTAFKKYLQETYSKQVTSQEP

No constants are given. Whether binding was seen depends on the method and setting. In cells and extracts the contact can be indirect.

Binding data for one substance are collected here from PMC7532574.

With “UbcH10 (from UniProt O00762 1-179) (enzyme)”, the binding result was “no binding”.
